Measured values taken from patent US20050065102.
For some of these results: Where cells or extracts were used, other partners may take part. For some of these results: A negative result means that nothing was seen under these conditions. For some of these results: The comparison behind a weaker result is the experiment's own reference, which may not be listed here. For some of these results: The exact form of at least one protein or probe is not confirmed. For some of these results: Protein sequences can lack the tags named with them.

Protein sequences, listed by entry. Tags and fused reporters are not part of them. Residues count along the entry.
UniProt P08621, 2-437: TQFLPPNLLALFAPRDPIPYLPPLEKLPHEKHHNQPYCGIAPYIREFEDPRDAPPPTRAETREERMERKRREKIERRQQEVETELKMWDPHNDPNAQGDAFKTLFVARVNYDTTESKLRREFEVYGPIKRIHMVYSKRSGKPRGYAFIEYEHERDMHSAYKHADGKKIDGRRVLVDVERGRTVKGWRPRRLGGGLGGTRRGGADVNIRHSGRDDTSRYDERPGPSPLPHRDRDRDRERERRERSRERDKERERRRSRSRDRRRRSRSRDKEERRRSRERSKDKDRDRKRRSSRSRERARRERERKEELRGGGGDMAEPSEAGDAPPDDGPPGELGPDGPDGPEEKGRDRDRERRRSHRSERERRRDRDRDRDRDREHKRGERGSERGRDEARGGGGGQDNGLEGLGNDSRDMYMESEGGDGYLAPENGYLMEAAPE

Experiments:
[1] = biological target: T1, rHMG-I (recombinant HMG-I) (UniProt P17096); assay: SELEX; settings: purified recombinant protein, protein details: expressed in E. coli
T1 sequence (looked up, limits assumed): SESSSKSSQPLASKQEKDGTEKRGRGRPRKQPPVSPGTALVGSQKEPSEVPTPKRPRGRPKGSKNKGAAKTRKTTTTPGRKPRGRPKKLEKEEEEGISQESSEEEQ

[2] = biological target: HMG-I (HMGA1a) (Homo sapiens) (UniProt P17096); assay: binding assay; settings: UV crosslinking, protein in an extract, label: 35S
[3] = biological target: HMG-I (HMGA1a) (Homo sapiens) (UniProt P17096); assay: EMSA; settings: supershifted by anti-HMG-I/Y; 60 mM KCl, 4 mM MgCl2, tRNA, 25 C; also UV crosslinking positive (FIGS. 5, 12); protein in an extract; label: 35S or 32P
[4] = biological target: U1 (70K) snRNP (Homo sapiens) (UniProt P08621); assay: EMSA; settings: anti-U1 70K supershift in mock-transfected extract; absent in HMG-I transfected extract; protein in an extract; protein details: endogenous, SK-N-SH nuclear extract; label: 32P

Row | Sequence | selection result [1] | also measured
1 | CTTTGAATTAGGGTGCTATATGGTTTGCATTTT (double strand) [HMG-I selected DNA] | selected | –
2 | GGCCGCGTGTAGATATTGGGATTTGGTGTG (double strand) [HMG-I selected DNA] | selected | –
3 | UGGUGGUGCUCUACAAGUA [RNA probe No. 9] | – | binding result ([2]; SEQ 1 repeat only, lower than probe 10, variant of PS2 pre-mRNA probe No. 5): binds more weakly
4 | TTGAATTAGGGTGCTATATGTTTTGCATTTT (double strand) [HMG-I selected DNA] | selected | –
5 | ATCTGTAATTCCATGGTGGCTACTGGAACTA (double strand) [HMG-I selected DNA] | selected | –
6 | TGACCAAGTAAATCCGTCCCTCACTAGTGAA (double strand) [HMG-I selected DNA] | selected | –
7 | GCGAGTCGGGCCTGTATTTTGGTTGCTATTT (double strand) [HMG-I selected DNA] | – | selection result ([1]; also listed as SEQ 50): selected
8 | CCACTTTGAATTAGGGTGCTATATTTTTGCAT (double strand) [HMG-I selected DNA] | selected | –
9 | ATATCCTGCCAAAAATTTGTTCTCGGGGCTGA (double strand) [HMG-I selected DNA] | selected | –
10 | GTCGGGCCTGTATTTTGGTTGCTATTTTGAA (double strand) [HMG-I selected DNA] | – | selection result ([1]; also listed as SEQ 49): selected
11 | CGTTCCGACCAATGGGTTCGGATAATACGTT (double strand) [HMG-I selected DNA] | – | selection result ([1]; also listed as SEQ 58): selected
12 | GTGGATAAATTCCCCAATGTTATCTTATGAA (double strand) [HMG-I selected DNA] | – | selection result ([1]; also listed as SEQ 56): selected
13 | CCGCUGCUACAAGGUGAGGCCCU [RNA probe No. 11] | – | binding result ([2]; SEQ 2 repeat only, lower than probe 10, variant of PS2 pre-mRNA probe No. 5): binds more weakly
14 | GACCAUCUUCUUGGUGGU [RNA probe No. 6] | – | binding result ([2]; both repeats missing, variant of PS2 pre-mRNA probe No. 5): no binding
15 | GCUCUACAAGGCUGCUACAAG [RNA probe No. 7] | – | binding result ([2]; repeats joined directly, variant of PS2 pre-mRNA probe No. 5): binds
16 | ACCTAGGTTATTCTGCGGTATGGTTATCTG (double strand) [HMG-I selected DNA] | – | selection result ([1]; also listed as SEQ 63): selected
17 | TGAGGCATGAAGGTAATTACTGCATATTGA (double strand) [HMG-I selected DNA] | selected | –
18 | TATCCAGTGGATAATTCCCCAATGTTATCT (double strand) [HMG-I selected DNA] | selected | –
19 | GCUCUACAAGUACCGCUGCUACAAG [RNA probe No. 10] | – | binding result ([2]; higher than the single-repeat probes, variant of PS2 pre-mRNA probe No. 5): binds
20 | TCTGAGGCATGAAGGTAATTACTGCATCATT (double strand) [HMG-I selected DNA] | selected | –

Row | Sequence | selection result [1] | also measured
21 | AGGTTCGTGCACCCGGACCACAGTTTTTTCA (double strand) [HMG-I selected DNA] | selected | –
22 | CTTCTGCGGTATAAGGTGGGTTGGTGTGCTC (double strand) [HMG-I selected DNA] | selected | –
23 | GGTGCCGATACGTAATCACCGCATTCTTGGC (double strand) [HMG-I selected DNA] | selected | –
24 | GTGGAGGCTGCCGCGAGTTATCACAGTATAG (double strand) [HMG-I selected DNA] | selected | –
25 | GGTGCCGATACGTAACTCACCGCATTTTGGC (double strand) [HMG-I selected DNA] | selected | –
26 | CTTTGAATTAGGGTGCTATATTTTTGCATTTT (double strand) [HMG-I selected DNA] | selected | –
27 | TTGAATTAGGGTGCTATATTTTTGCATTTTGA (double strand) [HMG-I selected DNA] | selected | –
28 | GCUCUAAAAGUACCGCUGCUAAAAG [RNA probe No. 8] | – | binding result ([2]; C to A in both repeats, variant of RNA probe No. 10): no binding
29 | UGGUGGUGCUCUACAAGUACCGCUGCUACAAGGUGAGGCCCU [PS2 pre-mRNA probe No. 5] | – | binding result [3]: binds
30 | CGTGTTTCGCCAGAACCGCACTAGAGCAATTTGAA (double strand) [HMG-I selected DNA] | selected | –
31 | GCCATGTTTTTAGATAATTGTGCTTAGGCGT (double strand) [HMG-I selected DNA] | selected | –
32 | CGTTCTCTTTCGGAAACGGTTTTTGAGCACG (double strand) [HMG-I selected DNA] | selected | –
33 | GGTTCATTCTGCGGTATGGTTATCTG (double strand) [HMG-I selected DNA] | – | selection result ([1]; immunoprecipitation selection): selected
34 | GAGGTGTCAGGCGACACCTAAAAATTCACGC (double strand) [HMG-I selected DNA] | selected | –
35 | TGTTTCGCGTAAAGTATTACGTTGCTCTTTT (double strand) [HMG-I selected DNA] | selected | –
36 | GGTGCCGATACGTAACTCACCGCATTCTTGG (double strand) [HMG-I selected DNA] | selected | –
37 | GGGTGCCTAGCTCCGGAACATGGTTATTGA (double strand) [HMG-I selected DNA] | selected | –
38 | CACTTTGAATTAGGGTGCTATATGTTTTGCA (double strand) [HMG-I selected DNA] | selected | –
39 | UGGUGGUGCUCUACAAGUACCGCUGCUACAAGGUGAGGCCCUGGCCCUGCCCUCCAGCCACGCUUCUCUCCG [RNA probe No. 12] | – | binding result [4]: binds
40 | CGTTCTCTTTCGGAAATTTTTGAGCACG (double strand) [HMG-I selected DNA] | selected | –
